The subject of series [1] is serum Pi. The experiment in a line: Post hoc hyperphosphatemia assessment with phosphate-binding therapy. In kind it is in vivo, human. The following applies: futibatinib QD and phosphate-binding therapy for a minimum of two cycles; 95% CI, 47.8–80.9.
Series [2] in a line: clinical. To be noted: human, plasma, oral, 20 mg, Week 3 (day 21), QD 20 mg, n = 2, median (minimum, maximum).
For series [3], the system named is animal models of tumors with various FGFR gene abnormalities. The following applies: FGFR1 or FGFR2 amplification and FGFR3 translocation; cited from earlier work.

Take `C=CC(=O)N1CC[C@H](n2nc(C#Cc3cc(OC)cc(OC)c3)c3c(N)ncnc32)C1` [futibatinib]: in series [1], the “Patients achieving serum Pi level <5.5 mg/dl at the last futibatinib administration” value came out at 65.7%. For the same compound, the “Accumulation following repeated administration” value (TIW regimen, 36–160 mg) is reported as “no obvious futibatinib accumulation”. Also, the “Mean accumulation ratio of AUC0–last” value (after multiple doses of 160 mg TIW, 90% CI, 0.91–2.30) is given as 1.44. The Tmax (as a rule, the time at which the peak concentration occurs) in series [2] was 1.44 h. For the same compound, the “Antitumor activity in animal models” value in series [3] is recorded as “strong antitumor activity”.

The values above are taken from article PMC9899610 (Cancer Science, 2022).
